# Measured values: patent publication US8815934B2, “2-Phenyl-1-[4-(2-Aminoethoxy)-Benzyl]-Indole and estrogen formulations” (Wyeth LLC, priority 1998, dated 2014)
# At least one compound was matched to its structure with a doubt left.
# Tested on: Female Sprague Dawley CD rats, ovx
# Test: 6-week ovariectomized rat model
# Type: in vivo
# Settings: 2 μg/rat s.c. daily, mean ± SEM
# From the text: Female Sprague Dawley CD rats, ovx or sham ovx, were obtained 1 day after surgery from Taconic Farm (weight range 240-275 g). They were housed 3 or 4 rats/cage in a room on a 14/10 (light/dark) schedule and provided with food (Purina 500 rat chow) and water ad libitum. Treatment for all studies began 1 day after the animals arrival and dosed 5 or 7 days per week as indicated for 6 weeks. A group of age matched sham operated rats not receiving any treatment served as an intact, estrogen replete control group for each study. All treatments were prepared in 1% […] in normal saline at defined concentrations so that the treatment volume was 0.1 mL/100 g body weight. 17-beta estradiol was dissolved in corn oil (20 uG/mL) and delivered subcutaneously; 0.1 mL/rat. All dosages were adjusted at three week intervals according to group mean body weight measurements.
# Five weeks after the initiation of treatment and one week prior to the termination of the study, each rat was evaluated for bone mineral density (BMD). The BMD's of the proximal tibiae (PT) and fourth lumbar vertabrae (L4) were measured in anesthetized, rats using a dual energy X-ray absorptiometer (Eclipse XR-26, Norland Corp. Ft. Atkins, Wis.). The dual energy X-ray absorptiometer (DXA) measurements for each rat were performed as follows: Fifteen minutes prior to DXA measurements, the rat was anesthetized with an intraperitoneal injection of 100 mg/kg ketamine (Bristol Laboratories, Syracuse, N.Y.) and 0.75 mg/kg acepromazine (Aveco, Ft. Dodge, Iowa). The rat was placed on an acrylic table under the DXA scanner perpendicular to its path; the limbs were extended and secured with paper tape to the surface of the table. A preliminary scan was performed at a scan speed of 50 mm/second with a scan resolution of 1.5 mm×1.5 mm to determine the region of interest in PT and L4. Small subject software was employed at a scan speed of 10 mm/second with resolution of 0.5 mm×0.5 mm for final BMD measurements. […] Total choleserol is determined using a Boehringer-Mannheim Hitachi 911 clinical analyzer using the Cholesterol/HP kit. […]
compound,measurement,setting,value
C[C@]12CC[C@@H]3c4ccc(O)cc4CC[C@H]3[C@@H]1CC[C@@H]2O [17β-estradiol],BMD Proximal Tibia,following 5 weeks of treatment,0.224 ± 0.004 mg/cm^2
same,Body Weight,following 6 weeks of treatment,33.1 ± 4.9 g
same,Uterine Weight,following 6 weeks of treatment,426.0 ± 18.4 mg
